{"source": "PubChem BioAssay AID248", "about": "(DTP/NCI, 2004)", "test_system": "L1210 leukemia ip in BDF1 mice, survival T/C", "experiment": "NCI In Vivo Anticancer Drug Screen. Data for tumor model L1210 Leukemia (intraperitoneal) in B6D2F1 (BDF1) mice", "details": "T/C endpoint: mean survival time, higher T/C = longer survival", "note": "The list does not hold the whole screen: it gathers tests that were run many times, whatever their T/C, doses with no T/C, and many T/C values between a quarter and a half above the control. Other doses and runs of a compound stand elsewhere. T/C is the treated group as % of the vehicle group. Where survival is the endpoint, the PubChem record calls one and a half times the control and up active, and a quarter to a half above the control has no call in these data; cut-offs in other NCI protocols can differ. Schedule codes are those of the source, read here as Q, the interval in days (D) or hours (H), X, the number of doses. Some T/C values are followed by the survivors on the day toxicity was checked, most often the fifth; where none is given, no animal had died by that day. Some entries were tested several times; the values are given in rising order. Marks such as (2×) count equal records among those shown. Some schedules carry Z or #; the key to these is not given."}
{"smiles": "O=P1(N(CCCl)CCCl)NCCCO1", "note": "(centres undefined)", "values": [{"measurement": "T/C", "setting": "dose: 40.0 mg/kg/injection, schedule: Q## X008 (ip), vehicle: saline", "result": "141 % of control"}, {"measurement": "T/C", "setting": "dose: 43.0 mg/kg/injection, schedule: Q02DX010 (ip), vehicle: carboxymethylcellulose (CMC)", "result": "150, 153, 171, 173, 191, 197 % of control"}, {"measurement": "T/C", "setting": "dose: 44.0 mg/kg/injection, schedule: Q## X008 (ip), vehicle: saline", "result": "146 % of control"}, {"measurement": "T/C", "setting": "dose: 45.0 mg/kg/injection, schedule: Q01DX001 (ip), vehicle: saline", "result": "130 % of control"}, {"measurement": "T/C", "setting": "dose: 45.0 mg/kg/injection, schedule: Q01DX010 (ip), vehicle: saline", "result": "146, 149, 159, 176 % of control"}, {"measurement": "T/C", "setting": "dose: 45.0 mg/kg/injection, schedule: Q## X Z (ip), vehicle: saline", "result": "126 % of control"}, {"measurement": "T/C", "setting": "dose: 50.0 mg/kg/injection, schedule: Q01DX001 (ip), vehicle: saline, evaluated on day 5", "result": "108 % of control"}, {"measurement": "T/C", "setting": "dose: 50.0 mg/kg/injection, schedule: Q01DX001 (ip), vehicle: saline, evaluated on day 7", "result": "124 and 186 % of control"}, {"measurement": "T/C", "setting": "dose: 50.0 mg/kg/injection, schedule: Q01DX001 (ip), vehicle: saline, evaluated on day 30", "result": "110, 115, 118, 129 % of control (2×)"}, {"measurement": "T/C", "setting": "dose: 50.0 mg/kg/injection, schedule: Q01DX001 (ip), vehicle: saline, evaluated on day 45", "result": "126 % of control"}, {"measurement": "T/C", "setting": "dose: 50.0 mg/kg/injection, schedule: Q01DX001 (ip), vehicle: saline, evaluated on day 60", "result": "114, 122, 123, 133, 134 % of control"}, {"measurement": "T/C", "setting": "dose: 50.0 mg/kg/injection, schedule: Q01DX001 (ip), vehicle: saline, evaluated on day 63", "result": "126 % of control"}, {"measurement": "T/C", "setting": "dose: 50.0 mg/kg/injection, schedule: Q01DX001 (ip), vehicle: saline, evaluated on day 64", "result": "185 % of control"}, {"measurement": "T/C", "setting": "dose: 50.0 mg/kg/injection, schedule: Q01DX001 (ip), vehicle: saline, run until all animals had died", "result": "91, 118, 122, 139 % of control"}, {"measurement": "T/C", "setting": "dose: 50.0 mg/kg/injection, schedule: Q01DX006 (iv), vehicle: saline", "result": "137 % of control"}, {"measurement": "T/C", "setting": "dose: 50.0 mg/kg/injection, schedule: Q01DX009 (ip), vehicle: saline", "result": "137 % of control"}, {"measurement": "T/C", "setting": "dose: 50.0 mg/kg/injection, schedule: Q01DX Z (im), vehicle: saline", "result": "132 % of control"}, {"measurement": "T/C", "setting": "dose: 50.0 mg/kg/injection, schedule: Q01DX Z (ip), vehicle: methylcellulose (MC)", "result": "128 and 146 % of control"}, {"measurement": "T/C", "setting": "dose: 50.0 mg/kg/injection, schedule: Q01DX Z (ip), vehicle: saline", "result": "120, 150, 176, 185, 308 % of control"}, {"measurement": "T/C", "setting": "dose: 50.0 mg/kg/injection, schedule: Q04DX002 (ip), vehicle: saline", "result": "130 % of control"}, {"measurement": "T/C", "setting": "dose: 50.0 mg/kg/injection, schedule: Q04DX003 (ip), vehicle: saline", "result": "133 and 141 % of control"}, {"measurement": "T/C", "setting": "dose: 50.0 mg/kg/injection, schedule: Q07DX003 (ip), vehicle: saline", "result": "131 % of control"}, {"measurement": "T/C", "setting": "dose: 54.0 mg/kg/injection, schedule: Q01DX009 (ip), vehicle: saline", "result": "136 % of control"}, {"measurement": "T/C", "setting": "dose: 54.0 mg/kg/injection, schedule: Q## X004 (ip), vehicle: saline", "result": "148 % of control"}, {"measurement": "T/C", "setting": "dose: 59.0 mg/kg/injection, schedule: Q01DX001 (ip), vehicle: saline, evaluated on day 5", "result": "131 % of control"}, {"measurement": "T/C", "setting": "dose: 59.0 mg/kg/injection, schedule: Q01DX001 (ip), vehicle: saline, evaluated on day 45", "result": "132 % of control"}, {"measurement": "T/C", "setting": "dose: 59.0 mg/kg/injection, schedule: Q04DX002 (ip), vehicle: saline", "result": "135, 138, 142, 160 % of control"}, {"measurement": "T/C", "setting": "dose: 60.0 mg/kg/injection, schedule: Q02DX010 (ip), vehicle: carboxymethylcellulose (CMC)", "result": "139 % of control"}, {"measurement": "T/C", "setting": "dose: 62.5 mg/kg/injection, schedule: Q01DX001 (ip), vehicle: saline", "result": "142 % of control"}, {"measurement": "T/C", "setting": "dose: 62.5 mg/kg/injection, schedule: Q01DX001 (ip), vehicle: water, evaluated on day 30", "result": "146 % of control"}, {"measurement": "T/C", "setting": "dose: 62.5 mg/kg/injection, schedule: Q01DX001 (ip), vehicle: water, evaluated on day 45", "result": "126 % of control"}, {"measurement": "T/C", "setting": "dose: 64.0 mg/kg/injection, schedule: Q## X032 (ip), vehicle: saline", "result": "126 % of control"}, {"measurement": "T/C", "setting": "dose: 64.5 mg/kg/injection, schedule: Q02DX010 (ip), vehicle: other", "result": "146 % of control"}, {"measurement": "T/C", "setting": "dose: 65.0 mg/kg/injection, schedule: Q01DX001 (ip), vehicle: saline", "result": "132 % of control"}, {"measurement": "T/C", "setting": "dose: 65.0 mg/kg/injection, schedule: Q01DX001 (sc), vehicle: saline", "result": "138 and 142 % of control"}, {"measurement": "T/C", "setting": "dose: 65.0 mg/kg/injection, schedule: Q08DX002 (ip), vehicle: saline", "result": "136 % of control"}, {"measurement": "T/C", "setting": "dose: 66.0 mg/kg/injection, schedule: Q01DX001 (ip), vehicle: saline", "result": "131 % of control"}, {"measurement": "T/C", "setting": "dose: 67.0 mg/kg/injection, schedule: Q02DX010 (ip), vehicle: carboxymethylcellulose (CMC)", "result": "140, 162, 185, 225, 233 % of control"}, {"measurement": "T/C", "setting": "dose: 75.0 mg/kg/injection, schedule: Q01DX001 (ip), vehicle: saline with Tween-80", "result": "132 % of control"}, {"measurement": "T/C", "setting": "dose: 75.0 mg/kg/injection, schedule: Q01DX001 (ip), vehicle: saline, evaluated on day 20", "result": "127 % of control"}, {"measurement": "T/C", "setting": "dose: 75.0 mg/kg/injection, schedule: Q01DX001 (ip), vehicle: saline, evaluated on day 30", "result": "99, 115, 117, 131, 132, 134, 137, 138 [5 of 6 alive], 139 (2×), 146, 148, 150 % of control"}, {"measurement": "T/C", "setting": "dose: 75.0 mg/kg/injection, schedule: Q01DX001 (ip), vehicle: water, evaluated on day 5", "result": "124, 133, 185 % of control"}, {"measurement": "T/C", "setting": "dose: 75.0 mg/kg/injection, schedule: Q01DX001 (ip), vehicle: water, evaluated on day 30", "result": "196 % of control"}, {"measurement": "T/C", "setting": "dose: 75.0 mg/kg/injection, schedule: Q01DX001 (ip), vehicle: water, evaluated on day 60", "result": "133 and 154 % of control"}]}
